Consider 30 targets from the supplement of paper PMC10849652.

Protein sequences, listed by entry. Tags and fused reporters are not part of them. Lines headed by an entry give the natural chain unless they say otherwise; changes in a name come on top.
UniProt P25685, whole entry, looked up: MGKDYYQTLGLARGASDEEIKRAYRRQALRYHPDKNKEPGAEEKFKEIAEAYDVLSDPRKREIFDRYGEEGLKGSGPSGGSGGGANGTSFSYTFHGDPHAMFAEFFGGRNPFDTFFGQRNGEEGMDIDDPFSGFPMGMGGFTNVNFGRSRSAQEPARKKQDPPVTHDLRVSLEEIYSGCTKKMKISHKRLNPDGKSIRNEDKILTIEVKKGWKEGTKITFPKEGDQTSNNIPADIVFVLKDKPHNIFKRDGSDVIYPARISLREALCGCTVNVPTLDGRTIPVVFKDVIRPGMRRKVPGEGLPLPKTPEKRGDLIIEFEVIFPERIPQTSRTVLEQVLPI
UniProt Q5VYK3, whole entry, looked up: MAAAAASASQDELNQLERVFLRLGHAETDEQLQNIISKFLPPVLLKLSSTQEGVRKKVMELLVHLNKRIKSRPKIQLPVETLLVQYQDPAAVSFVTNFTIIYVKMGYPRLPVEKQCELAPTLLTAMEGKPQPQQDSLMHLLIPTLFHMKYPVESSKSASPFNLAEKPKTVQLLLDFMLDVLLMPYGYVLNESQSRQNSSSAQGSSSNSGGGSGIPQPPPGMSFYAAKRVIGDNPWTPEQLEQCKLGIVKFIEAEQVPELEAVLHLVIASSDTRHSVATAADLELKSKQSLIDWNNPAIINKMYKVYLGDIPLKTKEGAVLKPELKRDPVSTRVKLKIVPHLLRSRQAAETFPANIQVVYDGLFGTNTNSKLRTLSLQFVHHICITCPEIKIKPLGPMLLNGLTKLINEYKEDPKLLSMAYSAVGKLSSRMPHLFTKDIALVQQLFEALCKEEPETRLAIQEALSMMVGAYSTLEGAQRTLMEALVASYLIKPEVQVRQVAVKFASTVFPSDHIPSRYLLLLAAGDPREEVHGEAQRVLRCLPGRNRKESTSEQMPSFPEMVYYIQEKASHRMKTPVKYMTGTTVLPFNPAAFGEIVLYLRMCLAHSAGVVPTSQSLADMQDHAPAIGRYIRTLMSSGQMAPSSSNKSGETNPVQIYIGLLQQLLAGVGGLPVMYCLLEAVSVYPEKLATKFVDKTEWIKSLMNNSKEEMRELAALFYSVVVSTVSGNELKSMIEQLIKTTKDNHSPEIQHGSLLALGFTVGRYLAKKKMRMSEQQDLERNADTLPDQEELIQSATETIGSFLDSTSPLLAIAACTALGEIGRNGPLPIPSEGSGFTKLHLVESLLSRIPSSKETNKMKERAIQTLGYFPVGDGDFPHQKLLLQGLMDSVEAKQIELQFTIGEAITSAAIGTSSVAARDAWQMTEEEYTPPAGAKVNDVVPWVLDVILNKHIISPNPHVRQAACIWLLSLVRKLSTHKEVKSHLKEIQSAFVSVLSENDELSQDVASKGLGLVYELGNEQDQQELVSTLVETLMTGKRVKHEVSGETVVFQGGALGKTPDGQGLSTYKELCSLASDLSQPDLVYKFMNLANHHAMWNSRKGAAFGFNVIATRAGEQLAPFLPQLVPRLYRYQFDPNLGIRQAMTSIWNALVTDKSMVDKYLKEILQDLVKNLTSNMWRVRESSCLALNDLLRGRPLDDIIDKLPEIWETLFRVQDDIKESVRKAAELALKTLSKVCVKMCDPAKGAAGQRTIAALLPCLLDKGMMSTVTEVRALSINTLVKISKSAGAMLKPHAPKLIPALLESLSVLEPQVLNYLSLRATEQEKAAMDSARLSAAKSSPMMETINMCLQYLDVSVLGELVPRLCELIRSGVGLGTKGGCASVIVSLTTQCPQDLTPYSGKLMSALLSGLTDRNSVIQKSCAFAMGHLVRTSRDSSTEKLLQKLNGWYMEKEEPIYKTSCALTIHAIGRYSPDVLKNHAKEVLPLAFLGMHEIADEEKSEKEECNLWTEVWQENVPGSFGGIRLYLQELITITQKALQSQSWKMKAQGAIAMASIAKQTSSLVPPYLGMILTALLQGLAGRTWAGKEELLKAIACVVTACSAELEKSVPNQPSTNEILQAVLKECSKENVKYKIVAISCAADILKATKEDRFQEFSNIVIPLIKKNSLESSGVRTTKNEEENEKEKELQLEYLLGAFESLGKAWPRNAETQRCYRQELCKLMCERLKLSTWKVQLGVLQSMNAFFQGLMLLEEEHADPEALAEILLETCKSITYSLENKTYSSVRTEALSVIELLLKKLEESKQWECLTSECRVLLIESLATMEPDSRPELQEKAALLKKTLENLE
UniProt Q99704: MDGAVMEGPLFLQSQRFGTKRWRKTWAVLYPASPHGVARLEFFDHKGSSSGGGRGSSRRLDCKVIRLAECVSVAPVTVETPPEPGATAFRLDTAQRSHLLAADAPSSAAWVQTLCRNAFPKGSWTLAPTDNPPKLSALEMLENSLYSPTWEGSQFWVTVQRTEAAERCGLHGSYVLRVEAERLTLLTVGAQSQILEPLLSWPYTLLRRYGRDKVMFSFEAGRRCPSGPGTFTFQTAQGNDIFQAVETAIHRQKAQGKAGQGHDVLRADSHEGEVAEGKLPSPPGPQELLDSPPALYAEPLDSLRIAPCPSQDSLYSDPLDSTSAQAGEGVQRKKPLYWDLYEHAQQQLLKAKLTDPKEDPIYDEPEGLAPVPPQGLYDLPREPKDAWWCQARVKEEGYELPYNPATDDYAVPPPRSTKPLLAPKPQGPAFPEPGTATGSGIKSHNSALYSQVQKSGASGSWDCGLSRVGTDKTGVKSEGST
UniProt Q96G46: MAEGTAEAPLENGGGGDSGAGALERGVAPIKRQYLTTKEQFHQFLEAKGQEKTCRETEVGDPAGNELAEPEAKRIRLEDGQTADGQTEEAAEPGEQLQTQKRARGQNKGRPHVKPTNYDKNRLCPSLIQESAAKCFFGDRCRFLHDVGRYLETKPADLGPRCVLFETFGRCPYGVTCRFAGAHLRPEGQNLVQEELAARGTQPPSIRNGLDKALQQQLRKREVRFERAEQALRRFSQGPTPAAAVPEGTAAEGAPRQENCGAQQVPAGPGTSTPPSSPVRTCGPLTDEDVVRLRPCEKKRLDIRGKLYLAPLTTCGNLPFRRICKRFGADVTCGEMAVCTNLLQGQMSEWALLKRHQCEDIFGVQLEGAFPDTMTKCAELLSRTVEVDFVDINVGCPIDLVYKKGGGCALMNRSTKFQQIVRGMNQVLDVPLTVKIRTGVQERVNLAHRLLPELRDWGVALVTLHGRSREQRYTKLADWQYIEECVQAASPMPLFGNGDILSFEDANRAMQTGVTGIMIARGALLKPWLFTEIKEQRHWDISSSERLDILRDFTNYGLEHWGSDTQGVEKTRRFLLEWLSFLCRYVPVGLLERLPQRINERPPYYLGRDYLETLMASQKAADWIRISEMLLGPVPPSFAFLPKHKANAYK
UniProt P50570: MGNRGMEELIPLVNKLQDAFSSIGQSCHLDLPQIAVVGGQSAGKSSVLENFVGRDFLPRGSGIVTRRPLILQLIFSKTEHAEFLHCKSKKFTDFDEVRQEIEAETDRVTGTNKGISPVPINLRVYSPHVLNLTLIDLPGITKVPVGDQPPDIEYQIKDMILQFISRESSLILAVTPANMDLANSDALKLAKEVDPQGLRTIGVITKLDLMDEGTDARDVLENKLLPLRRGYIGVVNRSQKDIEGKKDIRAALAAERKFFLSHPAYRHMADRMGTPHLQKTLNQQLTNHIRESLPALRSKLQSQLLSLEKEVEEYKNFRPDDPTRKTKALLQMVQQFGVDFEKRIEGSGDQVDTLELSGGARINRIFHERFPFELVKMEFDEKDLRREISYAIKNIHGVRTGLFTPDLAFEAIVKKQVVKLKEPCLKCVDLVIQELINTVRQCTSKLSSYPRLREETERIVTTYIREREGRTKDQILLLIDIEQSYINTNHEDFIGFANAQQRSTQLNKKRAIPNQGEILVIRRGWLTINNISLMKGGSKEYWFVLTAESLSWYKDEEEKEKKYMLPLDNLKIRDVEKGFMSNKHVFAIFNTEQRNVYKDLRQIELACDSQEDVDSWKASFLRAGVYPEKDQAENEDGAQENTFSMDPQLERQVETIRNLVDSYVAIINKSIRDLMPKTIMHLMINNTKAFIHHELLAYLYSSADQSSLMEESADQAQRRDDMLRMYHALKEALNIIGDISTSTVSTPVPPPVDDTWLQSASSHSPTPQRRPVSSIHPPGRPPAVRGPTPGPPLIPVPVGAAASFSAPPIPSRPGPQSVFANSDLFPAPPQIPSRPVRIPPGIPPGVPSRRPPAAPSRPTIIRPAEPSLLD
UniProt Q96EV8: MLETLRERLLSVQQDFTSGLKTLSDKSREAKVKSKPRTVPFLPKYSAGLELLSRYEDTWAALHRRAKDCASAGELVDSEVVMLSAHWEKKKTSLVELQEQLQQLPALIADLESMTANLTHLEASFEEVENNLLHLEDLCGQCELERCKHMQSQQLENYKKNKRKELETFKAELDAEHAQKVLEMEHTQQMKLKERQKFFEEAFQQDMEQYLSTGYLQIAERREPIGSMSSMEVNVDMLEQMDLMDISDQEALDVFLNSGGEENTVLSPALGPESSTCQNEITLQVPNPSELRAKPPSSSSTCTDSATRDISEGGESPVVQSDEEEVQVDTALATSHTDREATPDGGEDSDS
UniProt Q15075: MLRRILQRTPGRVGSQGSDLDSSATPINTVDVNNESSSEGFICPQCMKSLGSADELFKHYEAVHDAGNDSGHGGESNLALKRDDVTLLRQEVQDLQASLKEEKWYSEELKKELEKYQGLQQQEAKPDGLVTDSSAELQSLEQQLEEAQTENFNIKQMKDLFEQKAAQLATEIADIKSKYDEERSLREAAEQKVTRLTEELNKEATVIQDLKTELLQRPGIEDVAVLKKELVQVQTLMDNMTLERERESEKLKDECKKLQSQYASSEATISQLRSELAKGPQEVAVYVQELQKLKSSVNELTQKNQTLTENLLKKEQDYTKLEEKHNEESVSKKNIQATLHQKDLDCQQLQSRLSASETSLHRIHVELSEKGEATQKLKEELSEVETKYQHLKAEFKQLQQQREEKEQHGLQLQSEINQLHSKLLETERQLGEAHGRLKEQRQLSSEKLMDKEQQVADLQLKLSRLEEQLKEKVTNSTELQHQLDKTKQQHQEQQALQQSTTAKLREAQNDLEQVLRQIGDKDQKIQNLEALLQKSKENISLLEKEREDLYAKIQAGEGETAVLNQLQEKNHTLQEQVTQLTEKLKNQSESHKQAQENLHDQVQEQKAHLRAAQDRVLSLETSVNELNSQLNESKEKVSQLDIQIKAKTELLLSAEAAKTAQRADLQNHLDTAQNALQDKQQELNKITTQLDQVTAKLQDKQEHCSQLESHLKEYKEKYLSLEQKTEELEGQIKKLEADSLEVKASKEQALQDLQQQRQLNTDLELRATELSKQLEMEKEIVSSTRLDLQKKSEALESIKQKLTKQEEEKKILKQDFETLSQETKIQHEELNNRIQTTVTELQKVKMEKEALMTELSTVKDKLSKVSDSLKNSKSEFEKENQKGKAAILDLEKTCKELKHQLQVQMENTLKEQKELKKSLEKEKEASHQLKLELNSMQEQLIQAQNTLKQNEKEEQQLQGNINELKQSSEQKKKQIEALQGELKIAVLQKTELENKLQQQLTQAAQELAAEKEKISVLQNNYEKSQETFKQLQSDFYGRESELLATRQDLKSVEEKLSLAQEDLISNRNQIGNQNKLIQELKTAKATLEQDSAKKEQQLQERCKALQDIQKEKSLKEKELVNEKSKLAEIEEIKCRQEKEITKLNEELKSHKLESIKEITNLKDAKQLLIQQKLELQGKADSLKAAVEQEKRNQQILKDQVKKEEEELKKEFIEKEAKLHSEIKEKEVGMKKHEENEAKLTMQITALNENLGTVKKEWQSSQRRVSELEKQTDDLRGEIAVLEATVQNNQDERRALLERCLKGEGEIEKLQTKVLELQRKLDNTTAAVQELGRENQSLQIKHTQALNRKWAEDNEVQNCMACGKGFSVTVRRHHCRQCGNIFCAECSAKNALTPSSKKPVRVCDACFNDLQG
UniProt Q9BV94: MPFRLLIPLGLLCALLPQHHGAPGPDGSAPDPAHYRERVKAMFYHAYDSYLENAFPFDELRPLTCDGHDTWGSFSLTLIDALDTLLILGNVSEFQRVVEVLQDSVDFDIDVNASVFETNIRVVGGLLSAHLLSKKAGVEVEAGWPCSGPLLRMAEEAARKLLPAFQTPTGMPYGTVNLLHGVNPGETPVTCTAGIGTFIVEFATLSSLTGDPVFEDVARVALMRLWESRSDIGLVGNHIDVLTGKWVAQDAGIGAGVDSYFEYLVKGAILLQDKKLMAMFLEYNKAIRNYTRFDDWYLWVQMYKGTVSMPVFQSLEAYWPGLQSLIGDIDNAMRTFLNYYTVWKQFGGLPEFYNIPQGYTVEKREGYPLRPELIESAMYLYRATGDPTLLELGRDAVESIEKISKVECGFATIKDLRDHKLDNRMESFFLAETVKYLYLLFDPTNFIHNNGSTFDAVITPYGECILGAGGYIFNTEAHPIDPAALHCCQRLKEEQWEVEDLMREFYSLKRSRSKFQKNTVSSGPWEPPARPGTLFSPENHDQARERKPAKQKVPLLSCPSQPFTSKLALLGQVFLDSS

Some of the results follow.

Compound in the first assay: COc1cc(C(=O)O)ccc1NC(=O)[C@@H]1N[C@@H](CC(C)(C)C)[C@](C#N)(c2ccc(Cl)cc2F)[C@H]1c1cccc(Cl)c1F [idasanutlin]
Briefly: log2 fold change, soluble protein after heating vs DMSO (PISA); higher = thermal stabilisation; K562 cells, 10 uM, 30 min; active = over 0.2 and 3.5 SD of the protein, either way, in both replicates (recomputed). In a few lines:
(§1)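 K562 cells (2×10^6 cells/mL) were treated with 10 μM compound for 30 min, and aliquots were heated for 3 min over 48°C-58°C. Pooled aliquots were extracted in PBS with 0.5% NP-40 at 4°C, and the supernatant after 21,000xg for 90 min was measured by TMTpro 16plex LC-MS/MS with channel sums equalised. Reported thermal stability, relative to control samples and from duplicates, is a log2 fold change.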
Turning to DNAJC1 (UniProt Q96KC8), the log2 fold change is inactive: -0.064.
The same measure, in the same setting: the value for DXO (UniProt O77932) was inactive: 0.007; that for DNPH1 (UniProt H0Y8X4) was inactive: 0.
As to DNAJB1 (UniProt P25685), the log2 fold change is inactive: -0.032.
As to EARS2 isoform 2 (UniProt Q5JPH6), the log2 fold change is inactive: -0.103.
Consider ECPAS (UniProt Q5VYK3), for which the log2 fold change was inactive: -0.127.
Regarding DYNC1LI2 (UniProt O43237), the log2 fold change was inactive: 0.092.
Turning to DOCK8 (UniProt Q8NF50), the log2 fold change is inactive: 0.217.
With DTYMK (UniProt P23919), the log2 fold change was inactive: -0.065.
The same measure, in the same setting: next, DOK1 (UniProt Q99704): inactive: -0.019; DNAL1 (UniProt Q4LDG9): inactive: -0.098.
Regarding DUS3L (UniProt Q96G46), the log2 fold change was inactive: 0.011.
For the target DNM2 (UniProt P50570), the log2 fold change is inactive: -0.078.
For the target DYRK1A isoform 2 (UniProt Q13627), the log2 fold change is inactive: 0.
With DYNC1I2 isoform 5 (UniProt Q13409), the log2 fold change was inactive: 0.025.
Same read-out and setting: next, DTNBP1 (UniProt Q96EV8): inactive: -0.068; DNAJB14 (UniProt Q8TBM8): inactive: 0.08.
As to EEA1 (UniProt Q15075), the log2 fold change is inactive: 0.017.
In the case of DPH5 isoform 5 (UniProt Q9H2P9), the log2 fold change is inactive: -0.049.
Take DUSP14 (UniProt O95147): the log2 fold change was inactive: -0.003.
With DNAJC5 (UniProt Q9H3Z4), the log2 fold change is inactive: 0.076.
EDEM2 (UniProt Q9BV94): the log2 fold change was inactive: -0.154.
Consider EBNA1BP2 (UniProt Q99848), for which the log2 fold change was inactive: 0.283.

Compound in another assay: COc1cc(Nc2ncc3c(n2)-c2ccc(Cl)cc2C(c2c(F)cccc2OC)=NC3)ccc1C(=O)O [alisertib]
The description is as above. In a few lines:
as §1
As to DNAJC1 (UniProt Q96KC8), the log2 fold change was inactive: 0.001.
On the same count and under the same terms, the value for DXO (UniProt O77932) was inactive: 0.046; that for DNPH1 (UniProt H0Y8X4) was inactive: -0.089; that for DNAJB1 (UniProt P25685) was inactive: -0.063.
On to EARS2 isoform 2 (UniProt Q5JPH6), for which the log2 fold change was inactive: 0.115.
As to ECPAS (UniProt Q5VYK3), the log2 fold change was inactive: -0.001.
As for DNPEP (UniProt C9JBE1), the log2 fold change is inactive: -0.112.
Regarding DYNC1LI2 (UniProt O43237), the log2 fold change was inactive: -0.053.
For the target DNM2 isoform 4 (UniProt P50570), the log2 fold change was inactive: 0.316.
Same read-out and setting: next, DOCK8 (UniProt Q8NF50): inactive: -0.029; DTYMK (UniProt P23919): inactive: -0.014.
With DOK1 (UniProt Q99704), the log2 fold change was inactive: -0.14.
Same read-out and setting: next, EDRF1 (UniProt Q3B7T1): inactive: -0.033.
On to DUS3L (UniProt Q96G46), for which the log2 fold change was inactive: -0.071.
With DNM2 (UniProt P50570), the log2 fold change was inactive: -0.073.
Take DYRK1A isoform 2 (UniProt Q13627): the log2 fold change was inactive: -0.03.
In the case of DYNC1I2 isoform 5 (UniProt Q13409), the log2 fold change was inactive: -0.051.
As for DTNBP1 (UniProt Q96EV8), the log2 fold change is inactive: -0.003.
For DNAJB14 (UniProt Q8TBM8), the log2 fold change is inactive: 0.117.
On to EEA1 (UniProt Q15075), for which the log2 fold change was inactive: -0.031.
Still for that read-out and setting: next, DPH5 isoform 5 (UniProt Q9H2P9): inactive: -0.037; DUSP14 (UniProt O95147): inactive: 0.742.
For the target DNAJC5 (UniProt Q9H3Z4), the log2 fold change is inactive: 0.026.
In the case of DNAJB14 (UniProt H7C494), the log2 fold change was inactive: 0.
The same measure, in the same setting: the value for EDEM2 (UniProt Q9BV94) was active: -0.441.
For the target EBNA1BP2 (UniProt Q99848), the log2 fold change is inactive: -0.172.
Consider DNAJC24 (UniProt Q6P3W2), for which the log2 fold change was inactive: 0.045.

Compound in another assay: COc1cc2nc(-c3cc(F)ccc3O)nc(N[C@@H]3CNC[C@H]3C(C)(C)O)c2cc1OC
The description is as above. Put shortly: as §1
For the target DNAJC1 (UniProt Q96KC8), the log2 fold change was inactive: -0.17.
Take DNPH1 (UniProt H0Y8X4): the log2 fold change is inactive: -0.077.
Consider DNAJB1 (UniProt P25685), for which the log2 fold change is inactive: 0.046.
Consider DNAJB2 (UniProt P25686), for which the log2 fold change was inactive: -0.018.
As to EARS2 isoform 2 (UniProt Q5JPH6), the log2 fold change was inactive: 0.163.
As for ECPAS (UniProt Q5VYK3), the log2 fold change is inactive: 0.055.
Take DPYSL3 isoform 2 (UniProt Q14195): the log2 fold change was inactive: 0.027.
Consider DNPEP (UniProt C9JBE1), for which the log2 fold change is inactive: 0.273.
DYNC1LI2 (UniProt O43237): the log2 fold change was inactive: 0.101.
With DTYMK (UniProt P23919), the log2 fold change is inactive: 0.047.
As for DOK1 (UniProt Q99704), the log2 fold change was inactive: -0.108.
For DUS3L (UniProt Q96G46), the log2 fold change is inactive: 0.01.
For the target DNM2 (UniProt P50570), the log2 fold change is inactive: 0.099.
Regarding DYRK1A isoform 2 (UniProt Q13627), the log2 fold change was inactive: 0.004.
Turning to DYNC1I2 isoform 5 (UniProt Q13409), the log2 fold change was inactive: 0.
Turning to DTNBP1 (UniProt Q96EV8), the log2 fold change was inactive: 0.004.
On to DNAJB14 (UniProt Q8TBM8), for which the log2 fold change was inactive: -0.08.
Consider EEA1 (UniProt Q15075), for which the log2 fold change is inactive: 0.002.
DPH5 isoform 5 (UniProt Q9H2P9): the log2 fold change was inactive: -0.071.
For DNAJC5 (UniProt Q9H3Z4), the log2 fold change was inactive: 0.097.
For the target DNAJB14 (UniProt H7C494), the log2 fold change is inactive: 0.014.
On to EDEM2 (UniProt Q9BV94), for which the log2 fold change was inactive: 0.028.
On to EBNA1BP2 (UniProt Q99848), for which the log2 fold change was inactive: -0.095.
For DNAJC24 (UniProt Q6P3W2), the log2 fold change is inactive: -0.111.
